Assay results reported in PubChem BioAssay AID2685 (National Center for Advancing Translational Sciences (NCATS), 2010).
This is one part of the list. The main result of the screen is listed elsewhere. These columns were measured beside it and carry no call. Most of these compounds were active or inconclusive in the main read-out, so they are no random draw. Potencies come from curve fits of mixed quality, noted in brackets.

Test: qHTS Assay for Lipid Storage Modulators in Drosophila S3 Cells;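 as to cell number change: cells counted by Cell Tracker Red CMTPX staining in the red channel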
Conditions: BODIPY lipid droplet fluorescence, 18-24 h; for cell number change: measured here: cell count max response, cells fed with added oleic acid
In short: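 Laser-scanning cytometry quantifies lipid droplet accumulation (500–530 nm total intensity; droplet/cell object ratio) in oleic acid-fed (400 uM added) Drosophila S3 cells treated with a concentration series. 20 uM Triacsin C defined 100% inhibition.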

[1] = measured here: cell number channel AC50, cells fed with added oleic acid
[2] = measured here: lipid fluorescence (Fed channel) AC50, cells fed with added oleic acid

SMILES	cell number change [%]	AC50 [1]	AC50 [2]
C=CCn1c2ccccc2c2n[nH]c(=S)nc21	-4.67	–	–
CCOc1ccc(CCN2C(=O)C(=O)N([C@H](CCCN(C)Cc3ccccc3)CNCc3ccccc3)C[C@@H]2C(C)C)cc1	1.31	6.51 µM [falling, single point]	6.51 µM [falling, single point]
Cc1c(C(=O)O)cnc2c([N+](=O)[O-])cnn12	-6.78	–	0.58 µM [falling, single point]
Cn1nc(C(C)(C)C)c([N+](=O)[O-])c1C(N)=O	-32.3	–	–
Cc1ccc(NC2=C/C(=N/S(=O)(=O)c3cccs3)c3ccccc3C2=O)cc1C	125	29.1 µM [rising, single point]	–
CC(NC(=O)c1ccccc1NC(=O)CN1CCc2ccccc2C1)c1ccccc1 (stereo not given)	11.3	–	–
CC(=O)C(C)Oc1cc(C)cc2oc(=O)c(C)c(C)c12 (stereo not given)	39.1	7.31 µM [rising, partial curve, poor fit]	–
Cc1cccc(Nc2c([N+](=O)[O-])ccc3nonc23)c1	–	–	6.51 µM [rising, single point]
C[C@H](NC(=O)c1nc[nH]c1C(=O)N[C@@H](C)c1ccccc1)c1ccccc1	-46.5	16.4 µM [falling, single point]	–
CC1Cc2ccccc2N1c1ncnc2c1nnn2Cc1ccccc1 (stereo not given)	-14	–	1.3 µM [rising, full curve, poor fit]
CCOC(=O)c1cnn2c(C(F)(F)F)cc(-c3cn(C)nc3C)nc12	6.47	–	0.461 µM [rising, full curve, poor fit]
COc1ccc(CCNC(=O)c2nn(C)c3c2CS(=O)(=O)c2ccccc2-3)cc1OC	-23.7	4.11 µM [falling, full curve, poor fit]	–
COCCSc1ccccc1C(=O)Nc1cc(C)ccn1	-0.569	–	–
CCN(CC)CCNC(=O)c1cc(-c2cccnc2)nc2ccc(S(=O)(=O)N3CCC(C)CC3)cc12	4.42	–	29.1 µM [rising, single point]
CC(C)(C)c1ccc(Cn2nnc3c(=O)[nH]c(C4CCCN(C(=O)c5cccs5)C4)nc32)cc1 (stereo not given)	-13.2	–	35.5 µM [rising, single point]
CCOCCCNC(=O)c1c[nH]c2ccc(S(=O)(=O)Nc3cccc(OC)c3)cc2c1=O	–	0.651 µM [rising, single point]	0.58 µM [rising, single point]
COc1ccc2c3c(cccc13)C(=O)N(O)C2=O	45.8	18.4 µM [rising, single point]	–
COc1ccc(CNCCCC(=O)Nc2c(Cl)ccc(C)c2Cl)cc1OC	18.8	–	4.11 µM [rising, full curve, poor fit]
COC(=O)c1sccc1NC(=O)Nc1ccc(OC)c(OC)c1	-6.49	–	6.51 µM [rising, partial curve, poor fit]

SMILES	cell number change [%]	AC50 [1]	AC50 [2]
NS(=O)(=O)c1ccc(NN=C2CCN(Cc3ccccc3)CC2)c([N+](=O)[O-])c1	4.3	0.164 µM [falling, single point]	1.16 µM [rising, partial curve, poor fit]
CCOc1cc(/C=C2/N=C(c3ccc(C(C)(C)C)cc3)OC2=O)cc(Cl)c1OS(C)(=O)=O	5.59	–	–
COc1ccc(OC)c(NC(=O)CSc2ccc(-c3ccco3)nn2)c1	-12.7	–	16.4 µM [falling, single point]
CCOc1ccc(NC(=O)C2CCCN2C(=O)OCc2ccccc2)cc1 (stereo not given)	38.2	–	–
CC(C)(Oc1ccc(Br)cc1)C(=O)N1CCc2ccccc21	-21.4	–	0.366 µM [rising, partial curve]
O=C(Nc1ncn[nH]1)c1cccc(F)c1	19	0.092 µM [falling, full curve, poor fit]	–
CC(/C=C1\N=C(SCc2ccccc2)SC1=O)=C\c1ccccc1	-1.61	–	–
COc1ccc(O)c(/C=N/NC(=O)c2ccc(CSc3nc(C)cc(C)n3)cc2)c1	-54.3	29.1 µM [falling, single point]	29.1 µM [falling, single point]
CN(C[C@H](Cc1ccccc1)N(C[C@H](Cc1cccc2ccccc12)N(CCc1ccccc1)N=O)N=O)N=O	10.4	–	2.06 µM [rising, full curve, poor fit]
COc1cccc(C(=O)OCC(=O)c2c(N)n(C)c(=O)n(C)c2=O)c1	36.2	20.6 µM [rising, single point]	–
Cc1cccc(NC(=O)NNC(=O)c2nn(C)cc2Br)c1	–	–	29.1 µM [falling, single point]
CC(C)C(C(=O)N1CCN(C(=O)OC(C)(C)C)CC1)n1cc(-c2cn([C@@H](C)C(=O)N3CCN(C(=O)OC(C)(C)C)CC3)nn2)nn1 (stereo not given in full)	15.4	–	14.6 µM [rising, single point]
CC(NC(=O)[C@H](C)NC(=O)C1CC(=O)N(c2ccc3c(c2)OCO3)C1)c1ccccc1 (stereo not given in full)	0.824	–	–
CCCN(CC(=O)Nc1ccccc1C)C(=O)c1ccc(N2CCOCC2)c([N+](=O)[O-])c1	0.851	–	8.2 µM [falling, partial curve]
O=C(NC(=S)Nc1ccc(Br)c(Cl)c1)C1CC1	5.67	0.00461 µM [rising, full curve, poor fit]	2.06 µM [rising, partial curve, poor fit]
CCN1CCN(CC(O)COc2ccc3c(c2)CCC3)CC1 (stereo not given)	28.6	–	4.61 µM [falling, full curve, poor fit]
O=C(NCC(=O)N1CCCCCCC1)c1ccco1	-0.413	–	–
CCOC(=O)C1CCN(c2nc3ccccc3nc2C(C#N)C(=O)NCCc2ccccc2)CC1 (stereo not given)	-22.5	2.31 µM [falling, single point]	3.66 µM [falling, single point]
COc1ccc(-n2ccnc(SCC(=O)NC3CCCCC3)c2=O)cc1	-7.67	–	0.103 µM [rising, full curve, poor fit]

Structures listed so far that have fluorine (two):
SMILES	cell number change [%]	AC50 [1]	AC50 [2]
CCOC(=O)c1cnn2c(C(F)(F)F)cc(-c3cn(C)nc3C)nc12	6.47	–	0.461 µM [rising, full curve, poor fit]
O=C(Nc1ncn[nH]1)c1cccc(F)c1	19	0.092 µM [falling, full curve, poor fit]	–
